Earlier results in patent publication US20090186859A1, “DIAZENIUMDIOLATED NON-STEROIDAL ANTI-INFLAMMATORY DRUGS, COMPOSITIONS THEREOF, AND RELATED METHODS” (THE UNITED STATES OF AMERICA, AS REPRESENTED BY THE SEC., …, priority 2006, published 2009).
For at least one compound, name, drawing or mass did not settle the structure.

Test system: chemically induced colon cancer
Settings: rats

Structure (SMILES): Cc1ccc(-c2cc(C(F)(F)F)nn2-c2ccc(S(N)(=O)=O)cc2)cc1 [Celecoxib]
- suppression of chemically induced colon cancer: nearly complete suppression
